Experimental data published in PMC6925144, “A prospective compound screening contest identified broader inhibitors for Sirtuin 1” (Scientific Reports, 2019).
In all, about 3,200 compounds were measured (“TSA(without NAD+) / Primary screening (TSA) / delta Tm (K)”: median about -0.07, highest 2% from about 0.37 on). The list shows a part of the results.

Sequences of proteins named here, by UniProt entry; tags and fusion partners are left off. Residues count along the entry.
UniProt Q96EB6, 2-747 limits assumed: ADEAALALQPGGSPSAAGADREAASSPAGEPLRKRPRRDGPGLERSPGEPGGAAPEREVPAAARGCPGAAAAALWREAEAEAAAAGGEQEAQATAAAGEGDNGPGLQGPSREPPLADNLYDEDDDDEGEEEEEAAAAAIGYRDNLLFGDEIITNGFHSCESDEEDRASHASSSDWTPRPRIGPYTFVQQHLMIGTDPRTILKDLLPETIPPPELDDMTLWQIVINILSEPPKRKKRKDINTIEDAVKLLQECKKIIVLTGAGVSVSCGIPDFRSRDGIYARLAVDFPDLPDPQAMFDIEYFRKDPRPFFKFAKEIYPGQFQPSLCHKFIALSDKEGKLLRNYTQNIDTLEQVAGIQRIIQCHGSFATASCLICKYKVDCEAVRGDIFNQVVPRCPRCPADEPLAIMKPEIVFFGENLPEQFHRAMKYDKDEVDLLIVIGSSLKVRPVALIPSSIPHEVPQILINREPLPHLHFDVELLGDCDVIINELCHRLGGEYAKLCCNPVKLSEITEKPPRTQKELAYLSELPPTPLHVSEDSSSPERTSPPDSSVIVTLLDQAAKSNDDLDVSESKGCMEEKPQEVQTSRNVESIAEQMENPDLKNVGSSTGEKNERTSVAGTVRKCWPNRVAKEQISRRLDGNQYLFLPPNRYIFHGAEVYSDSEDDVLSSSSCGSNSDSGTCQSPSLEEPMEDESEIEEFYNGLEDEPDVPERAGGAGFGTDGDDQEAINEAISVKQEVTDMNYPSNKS

target: NAD-dependent deacetylase Sirtuin 1 (human, UniProt Q96EB6); assay: primary screen, delta tm; design: single well (n = 1); settings: 10 µM
Summary of the method: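 Thermal shift of Sirtuin 1 measured without NAD+, compound at 10 µM (n = 1); value is ΔTm, with hits defined as ΔTm > 0.45 K or < −1.5 K. Hits retested at 5, 10, 20 µM (n = 4) and counterscreened on bovine carbonic anhydrase and ABL1 SH2 domain.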

Structure (SMILES)	TSA(without NAD+) / Primary screening (TSA) / delta Tm (K)
Cc1ccn2c(=O)cc(Cn3cnc4c(oc5ccccc54)c3=O)nc2c1	-0.17
CC(C)N(CC(=O)Nc1cc(C(N)=O)cc(C(N)=O)c1)Cc1ccccc1	0.02
O=C(Cc1cccnc1)Nc1ccccc1N1CCC(CO)CC1	0.19
O=C(COC(=O)c1ccc(CNS(=O)(=O)c2ccc(F)c(Cl)c2)cc1)c1ccccc1	-0.03
COc1ccc(N2C(=O)C(=O)N(CC(=O)Nc3ccccc3SCc3ccccc3)C2=O)cc1	0.27
O=C(CSc1ccccc1)Nc1cc2c(=O)[nH]cnc2cc1F	-0.28
O=c1oc(-c2ccc(F)cc2)nn1Cc1nc2ccccc2s1	-0.18
O=C1c2ccccc2NC(c2ccc(Cl)cc2)N1C1CC1 (stereo not drawn)	-0.22
CC1CCCN(C(=O)c2ccc(/C=C/c3ccc4ccccc4n3)cc2)C1 (stereo not drawn)	-0.21
Cc1nc(N2CCN(Cc3ccncc3)CC2)c2c(-c3cccs3)csc2n1	-0.08
COc1ccccc1NS(=O)(=O)c1ccc(NC(=O)CNC(=O)C23CC4CC(CC(C4)C2)C3)cc1	0.03
CCn1cnnc1-c1cccc(NC(=O)c2cc(C(N)=O)cn2C)c1	-0.05
Cc1cccc(N2CCN(C(=O)c3ccc(C(C)(C)C)cc3)CC2)c1C	-0.02
COc1cccc(N2CCN(CCC(=O)Nc3ccc(C(N)=O)cc3)CC2)c1	0.08
NC(=O)C1CCCCN1C(=O)CSc1nc2cc(Cl)ccc2[nH]1 (stereo not drawn)	-0.22
O=C(Nc1cccc(S(=O)(=O)NCc2ccco2)c1)c1ccccc1SCC(=O)N1CCCC1	-0.18
COC(=O)c1ccc2[nH]c3c(c2c1)CN(c1cn[nH]c(=O)c1Cl)CC3	0.07
CN(Cc1nc(-c2cccnc2)no1)Cc1c[nH]nc1-c1cccnc1	-0.08
COCCCNC(=O)/C(=C/c1ccc(OCc2ccccc2)cc1)c1nc2ccccc2[nH]1	0.17
CCC(N)CO (stereo not drawn)	0.12
C=C(C)CCN	-0.15
CCOc1ccc(-n2c(C)cc(C(=O)COc3ccccc3C(N)=O)c2C)cc1	-0.02
O=C(CSc1nnc(NCC2CCCO2)s1)Nc1nc(-c2cc(F)ccc2F)cs1 (stereo not drawn)	-0.03
COCC(C)N (stereo not drawn)	-0.11

Structure (SMILES)	TSA(without NAD+) / Primary screening (TSA) / delta Tm (K)
O=C(CCn1[nH]c(=O)ccc1=O)Nc1nc2ccccc2s1	-0.13
N#Cc1c(=O)c2cccnc2n2c1[nH]c1ccccc12	0.07
NCCOCC(=O)O	-0.23
CC(C)(C)OC(=O)N1CCCC1C(=O)N1CCN(c2cnccn2)CC1 (stereo not drawn)	-0.13
O=C(CSc1nccn1Cc1ccccn1)c1cccc(OC(F)F)c1	-0.14
Cc1ccc(-n2ccnc2SCC(=O)N(CCC(N)=O)Cc2ccccc2)c(C)c1	0.07
Cc1ccc(C(=O)C2=C(O)C(=O)N(CCCN3CCOCC3)C2c2ccc(OC(C)C)cc2)cc1 (stereo not drawn)	0.12
COc1ccc(S(=O)(=O)Nc2ccccc2OC)cc1NN=C1C(=O)NC(=S)NC1=O	-0.18
O=C(NC1CCCc2ccccc21)C(c1ccccc1)c1ccccc1 (stereo not drawn)	-0.05
CN(c1ccccc1)S(=O)(=O)c1cccc(C(=O)Nc2ccccc2C(F)(F)F)c1	-0.14
NC(=O)c1ccc(C(=O)OCC(=O)Nc2ccccc2-c2ccccc2)cc1	-0.18
CCC(=O)N1N=C(c2cccs2)CC1c1ccc(OC)cc1 (stereo not drawn)	-0.27
CC(C)(C)c1noc(CCCC(=O)Nc2ccc(F)c(C(N)=O)c2)n1	-0.15
Cc1ccc(C2CCCN2)cc1 (stereo not drawn)	-0.11
Nc1nc(COC(=O)c2cccc(NC(=O)c3cccs3)c2)nc(Nc2ccccc2)n1	0.18
O=C(Nc1ccccc1Cc1ccccc1)c1ccc2ccccc2c1	-0.08
Cc1cccn2cc(CSc3nc4ccsc4c(=O)n3C)nc12	-0.13
CN1/C(=C/C=C2C(=O)NC(=S)NC2=O)C(C)(C)c2ccccc21	-0.15
Cc1nc(C)c(-c2nnc(SCC(=O)N3CCN(Cc4cccs4)CC3)o2)s1	0.02
N#C/C(=C/c1ccc(-c2cccc(Cl)c2Cl)o1)C(=O)Nc1cccc2ncccc12	-0.23
COc1cccc(N2C(=O)NC(=O)C2=O)c1	-0.22
O=C1NC(=O)c2ccccc2/C1=C\NNC(=O)C12CC3CC(CC(C3)C1)C2	0.33
O=C1c2ccccc2NC2(CCCCC2)N1c1ccc2c(c1)OCCO2	-0.11
Cc1ccccc1CN1CCN(C(C)C(=O)Nc2sccc2C(N)=O)CC1 (stereo not drawn)	-0.03

Structure (SMILES)	TSA(without NAD+) / Primary screening (TSA) / delta Tm (K)
O=C(OCc1cccc(C(F)(F)F)c1)c1cnc2sccn2c1=O	-0.13
Cn1cc(C2CCNC2)c2ccccc21 (stereo not drawn)	-0.23
COc1ccc(CN2CCN(c3ncnc4sc5c(c34)CCCCC5)CC2)cc1	-0.28
CCC(C)c1ccc(NC(=O)C(C#N)C(=O)c2cncc(F)c2)cc1 (stereo not drawn)	0.13
Cn1ccc(CC(=O)Nc2nc(-c3cc(C(N)=O)co3)cs2)n1	-0.18
CCOc1ccc(NC(=O)CN(C)Cc2ccc(C(=O)Nc3ccccc3)cc2)cc1OCC	0.03
CC(CNC(=O)C1CCCN1C(=O)c1ccc2c(c1)OCO2)N(C)C (stereo not drawn)	-0.12
Nc1ncc(Cc2ccc(Br)cc2)s1	-0.08
Cc1ccc(C(=O)C2=C(O)C(=O)N(CCCN3CCOCC3)C2c2cccc(Br)c2)cc1 (stereo not drawn)	0.12
CCC(=O)N(c1nnc(SCC(=O)c2ccc(-c3ccccc3)cc2)s1)C1CC1	0.13
COCc1cc(NCc2cnn(Cc3ccccc3)c2)n2ncnc2n1	-0.02
Cc1ccsc1CN(C)C(=O)CCc1nc2ccccc2n(CCc2ccccc2)c1=O	0.17
CCS(=O)(=O)NC(C)C(=O)O (stereo not drawn)	-0.17
O=c1[nH]c2sc3c(c2c2nc(-c4ccc(Br)cc4)nn12)CCCCC3	0.08
CCCn1nnnc1CN1C(=O)NC(Cc2c[nH]c3ccccc23)C1=O (stereo not drawn)	-0.28
COc1ccc(C)c2c1N(C(=O)c1cccc(-n3cnnn3)c1)CCC2	0.07
Cc1cc(C)c2c(n1)sc1c(N3CCN(CCO)CC3)ncnc12	-0.07
N#Cc1ccc(NCC2CCN(c3ncnc4ccsc34)C2)nc1 (stereo not drawn)	-0.02
CS(=O)(=O)c1cccc(C(=O)N(Cc2ccccc2)c2ccccc2)c1	-0.13
ClC1=Nc2c(cnn2-c2ccccc2)CN1	-0.23
Cc1cc(N(C)C)n2nc(C(F)(F)F)c(-c3ccccc3)c2n1	-0.18
O=C(O)c1cccc(CNC(=O)c2ccc3[nH]ccc3c2)c1	-0.15
O=C(NCc1ccc(-n2cnc3ccccc32)nc1)c1ccc2[nH]cnc2c1	-0.02
Cc1ccc(C23CC4CC(CC(C(=O)N5CCN(S(=O)(=O)Cc6ccccc6)CC5)(C4)C2)C3)cc1	-0.02

Grouped by structure: those above containing a CF3 group.
Structure (SMILES)	TSA(without NAD+) / Primary screening (TSA) / delta Tm (K)
CN(c1ccccc1)S(=O)(=O)c1cccc(C(=O)Nc2ccccc2C(F)(F)F)c1	-0.14
O=C(OCc1cccc(C(F)(F)F)c1)c1cnc2sccn2c1=O	-0.13
Cc1cc(N(C)C)n2nc(C(F)(F)F)c(-c3ccccc3)c2n1	-0.18

Additional compounds:

Structure (SMILES)	TSA(without NAD+) / Primary screening (TSA) / delta Tm (K)
CCc1ccc(CN(C)C(=O)c2cc(C)nc3ccccc23)cc1	-0.01
Nc1nc(-c2ccc[nH]2)cs1	-0.11
O=C(c1cnc2ccc3[nH]ncc3c2c1)c1ccccc1O	-0.13
COc1cc(CN(C)C(=O)COc2ccc3ccc(=O)oc3c2)ccc1OCc1ccccc1	0.06
Cc1sc2nc(CN3CCCC3)nc(N3CCC(C(N)=O)CC3)c2c1C	-0.12
O=C1NC(=S)NC(=O)C1=Cc1c2oc(-c3ccccc3)cc(-c3ccccc3)c-2c2ccccc12	-0.14
COC(=O)c1c(N2C(=O)C=CC2=O)sc2c1CCCC2	-0.22
COc1ccc(S(=O)(=O)N2CCc3ccccc32)cc1C(=O)Nc1cccc(S(=O)(=O)NCc2ccco2)c1	0.22
Cc1ccc(-c2cc(C(=O)OC(C)C(=O)Nc3cccc([N+](=O)[O-])c3)[nH]n2)cc1 (stereo not drawn)	0.12
CCC(CNc1nc(-c2ccncc2)nc2ccccc12)N1CCCC1 (stereo not drawn)	0.05
O=C(CC12CC3CC(CC(O)(C3)C1)C2)N1CC=C(c2ccc(O)cc2)CC1	-0.05
NNC(=O)CCN1CCCCCC1	-0.04
COc1cc(C#N)cc(OC)c1OC	-0.11
O=c1oc2cc(O)ccc2cc1-c1csc(-c2cc3c(ccc4ccccc43)oc2=O)n1	0.15
O=C(CSc1ccccc1C(=O)Nc1ccccc1N1CCOCC1)NC12CC3CC(CC(C3)C1)C2	-0.18
CCOc1ccc(C2C(C(=O)c3ccc(Cl)cc3)=C(O)C(=O)N2CCCN2CCOCC2)cc1 (stereo not drawn)	0.13
O=C(COC(=O)c1cccc(S(=O)(=O)NCc2ccccc2)c1)NC12CC3CC(CC(C3)C1)C2	-0.18
Cn1cc(C(=O)O)c(-c2cccnc2)n1	0.17
NC(=O)C1NCCc2c(N)cccc21 (stereo not drawn)	-0.23
CCOc1cccc(C2C(C(=O)c3sc(C)nc3C)=C(O)C(=O)N2CCCN2CCOCC2)c1 (stereo not drawn)	0.06
CN(c1ccccc1)S(=O)(=O)c1cccc(NC(=O)COc2ccc3oc4ccccc4c3c2)c1	-0.04
